Laboratory results published in patent US20250090514A1, “METHOD OF TREATING CANCER” (Laekna Limited, priority 2019, published 2025).
For some assays here: At least one structure is not confirmed: it was looked up by name or label, or the drawing left a doubt. Some results were stated once for a whole list of compounds, not compound by compound.

Key:
CRPC/mCRPC patients = conditions: cited from earlier work
[1] = Body weight and tolerability in the Mini-PDX study; type: in vivo; conditions: treatment groups; afuresertib 75 mg/kg; CFG920 300 mg/kg
Experimental: During the study, the care and use of animals were conducted in accordance with the regulations of the Association for Assessment and Accreditation of Laboratory Animal Care (AAALAC). After Mini-PDX device inoculation, the animals were checked daily for morbidity and mortality. At the time of routine monitoring, the animals were checked for any effects of treatments on normal behavior such as mobility, visual estimation of food and water consumption, body weight gain/loss, eye/hair matting and any other abnormal effect.
The body weight of mice was measured every day, and relative change of bodyweight was calculated for each mouse according to the following formula: RCBW(%)=(BWi−BW0)/BW0×100, BWi is the body weight after treatment on a given day, BW0 is the bodyweight on the first day of treatment.

[2] = mCRPC, following progression on docetaxel and enzalutamide

Compound | CRPC patients responding to first-line treatment initially (CRPC/mCRPC patients) | Median time to progression (PSA, objective or symptomatic) (CRPC/mCRPC patients; [2]) [weeks] | patients achieving ≥50% decline in PSA (CRPC/mCRPC patients; [2]) [%] | body weight loss [1] [%]
C[C@]12CC[C@H](O)CC1=CC[C@@H]1[C@@H]2CC[C@]2(C)C(c3cccnc3)=CC[C@@H]12 [abiraterone] | more than 70% | 15.4 | 8 | 
Cn1ncc(Cl)c1-c1cc(C(=O)N[C@H](CN)Cc2cccc(F)c2)sc1Cl [afuresertib, N-{(1S)-2-amino-1-[(3-fluorophenyl)methyl]ethyl}-5-chloro-4-(4-chloro-1-methyl-1H-pyrazol-5-yl)-2-thiophenecarboxamide] |  |  |  | < 10
CNC(=O)c1ccc(N2C(=S)N(c3ccc(C#N)c(C(F)(F)F)c3)C(=O)C2(C)C)cc1F [enzalutamide, 4-(3-(4-cyano-3-(trifluoromethyl)phenyl)-5,5-dimethyl-4-oxo-2-thioxoimidazolidin-1-y1)-2-fluoro-N-methylbenzamide] | more than 70% |  |  | 
